{
  "source": "patent US11484525B2",
  "about": "(priority 2015, dated 2022)",
  "key": {"μOR [1]": {"target": "T1, μOR (Homo sapiens (Human), UniProt P35372)", "assay_type": "cell-based"}, "μOR [2]": {"target": "T1, μOR", "experiment": "β-arrestin recruitment, PathHunter enzyme complementation (OPRM1 CHO-K1)", "assay_type": "cell-based"}},
  "note": "“Also recorded” adds a separate entry of the source. For at least one compound, name, drawing or mass did not settle the structure.",
  "data": [
    {"smiles": "C[C@H](Cc1ccsc1)NC(=O)NC[C@@H](Cc1ccccc1)N(C)C", "note": "[Compound 12]", "values": [
      {"measurement": "Gi/o activation / μOR agonist activity", "setting": "μOR [1]", "value": "strongly activated"},
      {"measurement": "β-arrestin2 recruitment in PathHunter assay", "setting": "μOR [2]", "value": "undetectable; also recorded: low levels"}
    ]}
  ]
}
